Data published in patent publication US8642656B2, “Calixarene-based peptide conformation mimetics, methods of use, and methods of making” (priority 2004, dated 2014).
Some results were stated once for a whole list of compounds, not compound by compound.

System: endothelial cell (EC)
Assay: EC Proliferation Assay, [3H]thymidine incorporation (Example 36, Table 1)
Format: cell-based
Settings: relative to βpep-25
Description: Human umbilical vein derived EC(HUVEC) were harvested from normal human umbilical cords by perfusion with 0.125% trypsin/EDTA as described in Groenewegen et al., J. Exp. Med. 164, 131-143 (1986). For determination of quiescent EC phenotype isolated ECs were immediately fixed in 1% paraformaldehyde. Human microvascular ECs (MVECs) were isolated. ECs were cultured in fibronectin coated tissue culture flasks in culture medium (RPMJ-1640 with 20% human serum (HS), supplemented with 2 mM glutamine and 100 U/ml penicillin and 0.1 mg/ml streptomycin).
EC proliferation was measured using a [^3H]thymidine incorporation assay. ECs were seeded at 5000 cells/well in flatbottomed tissue culture plates and grown for 3 days, in the absence or presence of regulators, in culture medium. During the last 6 hours of the assay, the culture was pulsed with 0.5μ Ci [methyl-^3H]thymidine/well.

## 5,11,17,23-Tetra-tert-butyl-25,27-bis(2-guanidinoethoxy)-26,28-dihydroxy calix[4]arene trifluoroacetic acid salt [Compound 27]
  antiangiogenic activity, fold better than βpep-25: 5- to 10 fold

## CN(C)CCNC(=O)COc1c2cccc1Cc1cccc(c1OCC(=O)NCCN(C)C)Cc1cccc(c1OCC(=O)NCCN(C)C)Cc1cccc(c1OCC(=O)NCCN(C)C)C2 [Compound 40]
  antiangiogenic activity, fold better than βpep-25: 5- to 10 fold
